For this experiment, the target named is SPOP-ΔNLS (UniProt O43791). Description: co-IP; 293T cells transfected with the indicated plasmids; co-IP with anti-FLAG antibody from whole-cell lysates, Western blot. Background: Immunoblotting shows a protein as a band on a membrane.

The chains behind the UniProt entries cited, without tags or fusion partners. Where a name states a change or a piece, a line headed by the entry shows the natural chain unless it says otherwise.
UniProt O43791: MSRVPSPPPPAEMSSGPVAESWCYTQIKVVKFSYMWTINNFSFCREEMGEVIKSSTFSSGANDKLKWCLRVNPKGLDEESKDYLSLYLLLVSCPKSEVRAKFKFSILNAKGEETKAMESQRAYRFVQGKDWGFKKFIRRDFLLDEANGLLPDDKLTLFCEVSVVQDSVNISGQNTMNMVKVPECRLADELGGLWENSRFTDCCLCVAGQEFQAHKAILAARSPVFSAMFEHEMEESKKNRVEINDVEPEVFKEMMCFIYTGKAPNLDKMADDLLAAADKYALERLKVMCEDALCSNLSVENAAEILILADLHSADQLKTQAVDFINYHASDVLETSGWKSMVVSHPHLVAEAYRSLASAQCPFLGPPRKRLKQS
UniProt P15056: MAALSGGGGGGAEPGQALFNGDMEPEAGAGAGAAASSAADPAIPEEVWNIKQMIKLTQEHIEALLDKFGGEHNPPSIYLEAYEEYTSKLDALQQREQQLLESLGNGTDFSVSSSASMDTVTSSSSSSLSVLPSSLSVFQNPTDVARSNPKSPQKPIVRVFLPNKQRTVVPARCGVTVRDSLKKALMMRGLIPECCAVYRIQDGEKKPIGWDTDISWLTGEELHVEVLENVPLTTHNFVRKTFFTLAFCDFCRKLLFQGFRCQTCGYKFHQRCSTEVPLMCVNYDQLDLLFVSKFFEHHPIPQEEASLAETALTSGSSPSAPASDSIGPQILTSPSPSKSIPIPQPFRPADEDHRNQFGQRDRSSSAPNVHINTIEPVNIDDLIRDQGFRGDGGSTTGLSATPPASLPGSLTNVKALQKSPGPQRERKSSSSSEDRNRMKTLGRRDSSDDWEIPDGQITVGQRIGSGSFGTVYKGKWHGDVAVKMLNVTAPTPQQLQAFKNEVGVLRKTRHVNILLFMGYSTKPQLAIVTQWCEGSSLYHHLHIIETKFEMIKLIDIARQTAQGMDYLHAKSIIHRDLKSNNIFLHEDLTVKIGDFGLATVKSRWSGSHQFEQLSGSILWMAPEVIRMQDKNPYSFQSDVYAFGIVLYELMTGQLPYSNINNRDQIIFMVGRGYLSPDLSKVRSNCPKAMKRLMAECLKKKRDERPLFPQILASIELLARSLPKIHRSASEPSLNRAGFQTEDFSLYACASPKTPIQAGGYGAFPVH

One substance from publication PMC9805134 can be followed below.

These are yes or no findings as the source states them, for the method shown. Binding seen in cells or lysates may run through a third protein. Binding can be weak; no strength is given.

As to “BRAF, wild type, ectopically expressed (from UniProt P15056 1-766)”, the binding entry is listed as “binds”.
